Assay results from the supplement of paper PMC12823440, “Inhibitors supercharge kinase turnover through native proteolytic circuits” (Nature, 2025).
Structures can show the parent of a compound that is named as a salt. The list shows a part of the results. Hit calls seldom repeat between salt and free forms of one compound.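 Kinases were expressed as nanoluciferase fusions in K562 cells and luminescence was read every 4 h between 2 and 18 h as percent of control, DMSO set to 100% and a positive control to 0%. A time point counts as decreased when the signal drops significantly (2 sigma). The hit call is the authors' own, does not follow from the count of time points alone, and its rule is not shown.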

Chains of the proteins cited; added tags and fusions are not shown. Lines headed by an entry give the natural chain unless they say otherwise; changes in a name come on top.
UniProt O75460: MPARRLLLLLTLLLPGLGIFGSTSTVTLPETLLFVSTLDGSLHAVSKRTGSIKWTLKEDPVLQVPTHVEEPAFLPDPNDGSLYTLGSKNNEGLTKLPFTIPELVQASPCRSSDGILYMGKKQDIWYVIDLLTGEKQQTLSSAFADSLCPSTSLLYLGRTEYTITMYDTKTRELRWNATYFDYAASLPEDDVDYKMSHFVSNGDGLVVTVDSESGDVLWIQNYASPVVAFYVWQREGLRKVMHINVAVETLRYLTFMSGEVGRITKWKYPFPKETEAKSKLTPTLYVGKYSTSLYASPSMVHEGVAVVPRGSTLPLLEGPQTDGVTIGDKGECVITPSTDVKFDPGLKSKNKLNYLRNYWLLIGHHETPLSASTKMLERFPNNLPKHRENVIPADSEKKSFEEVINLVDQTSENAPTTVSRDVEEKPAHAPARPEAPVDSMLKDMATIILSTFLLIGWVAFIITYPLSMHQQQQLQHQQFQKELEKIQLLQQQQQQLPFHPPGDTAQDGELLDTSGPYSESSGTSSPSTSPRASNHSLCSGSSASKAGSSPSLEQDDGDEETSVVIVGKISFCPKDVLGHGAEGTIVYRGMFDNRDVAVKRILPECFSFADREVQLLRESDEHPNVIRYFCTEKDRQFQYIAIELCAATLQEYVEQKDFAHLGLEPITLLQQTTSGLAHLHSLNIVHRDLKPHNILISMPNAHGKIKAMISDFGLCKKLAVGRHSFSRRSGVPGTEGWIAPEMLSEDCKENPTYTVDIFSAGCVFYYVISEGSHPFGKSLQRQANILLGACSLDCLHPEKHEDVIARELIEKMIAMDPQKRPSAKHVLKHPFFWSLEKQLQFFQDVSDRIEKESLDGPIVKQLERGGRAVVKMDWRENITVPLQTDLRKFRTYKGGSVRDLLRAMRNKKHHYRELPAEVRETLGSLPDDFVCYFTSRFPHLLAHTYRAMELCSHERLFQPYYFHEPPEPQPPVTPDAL
UniProt P36888, whole entry: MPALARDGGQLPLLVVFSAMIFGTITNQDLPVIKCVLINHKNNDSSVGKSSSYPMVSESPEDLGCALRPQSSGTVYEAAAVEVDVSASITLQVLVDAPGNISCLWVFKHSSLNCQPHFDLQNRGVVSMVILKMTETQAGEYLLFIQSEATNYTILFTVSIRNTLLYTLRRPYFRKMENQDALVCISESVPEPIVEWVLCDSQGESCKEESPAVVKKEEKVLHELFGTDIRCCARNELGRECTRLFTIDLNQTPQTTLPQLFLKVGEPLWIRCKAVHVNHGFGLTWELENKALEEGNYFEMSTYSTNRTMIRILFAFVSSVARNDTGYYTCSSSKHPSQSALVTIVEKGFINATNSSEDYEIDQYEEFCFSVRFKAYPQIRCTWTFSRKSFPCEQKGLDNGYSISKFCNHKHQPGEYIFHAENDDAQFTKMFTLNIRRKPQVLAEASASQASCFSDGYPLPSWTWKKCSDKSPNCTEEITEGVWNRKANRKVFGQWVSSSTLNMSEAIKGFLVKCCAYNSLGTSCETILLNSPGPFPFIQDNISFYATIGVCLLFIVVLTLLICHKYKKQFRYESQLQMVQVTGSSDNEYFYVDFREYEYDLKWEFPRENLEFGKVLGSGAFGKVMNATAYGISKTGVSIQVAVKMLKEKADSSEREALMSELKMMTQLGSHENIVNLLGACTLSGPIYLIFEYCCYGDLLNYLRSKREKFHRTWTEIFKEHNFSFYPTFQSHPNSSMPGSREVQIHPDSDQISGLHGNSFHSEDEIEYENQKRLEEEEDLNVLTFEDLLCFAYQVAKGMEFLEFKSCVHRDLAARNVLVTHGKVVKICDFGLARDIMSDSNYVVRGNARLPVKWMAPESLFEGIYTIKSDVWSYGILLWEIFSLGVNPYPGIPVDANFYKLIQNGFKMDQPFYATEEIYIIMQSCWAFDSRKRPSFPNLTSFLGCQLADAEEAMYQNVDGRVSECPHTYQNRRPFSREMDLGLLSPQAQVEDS
UniProt P06241, whole entry, looked up: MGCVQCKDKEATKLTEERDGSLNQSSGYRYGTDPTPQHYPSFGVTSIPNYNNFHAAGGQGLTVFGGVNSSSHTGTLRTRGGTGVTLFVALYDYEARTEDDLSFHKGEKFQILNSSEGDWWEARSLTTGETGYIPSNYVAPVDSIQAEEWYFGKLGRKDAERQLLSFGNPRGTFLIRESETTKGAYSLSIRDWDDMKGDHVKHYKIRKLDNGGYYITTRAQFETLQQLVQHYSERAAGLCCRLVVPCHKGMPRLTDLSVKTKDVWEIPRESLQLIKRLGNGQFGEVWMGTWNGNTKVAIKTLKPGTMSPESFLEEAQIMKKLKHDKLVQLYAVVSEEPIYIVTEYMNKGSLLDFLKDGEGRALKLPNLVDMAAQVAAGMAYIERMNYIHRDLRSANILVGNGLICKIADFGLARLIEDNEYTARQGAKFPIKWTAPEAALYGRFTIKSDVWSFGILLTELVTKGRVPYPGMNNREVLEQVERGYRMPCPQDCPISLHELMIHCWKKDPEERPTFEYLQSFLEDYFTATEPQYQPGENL
UniProt P49840: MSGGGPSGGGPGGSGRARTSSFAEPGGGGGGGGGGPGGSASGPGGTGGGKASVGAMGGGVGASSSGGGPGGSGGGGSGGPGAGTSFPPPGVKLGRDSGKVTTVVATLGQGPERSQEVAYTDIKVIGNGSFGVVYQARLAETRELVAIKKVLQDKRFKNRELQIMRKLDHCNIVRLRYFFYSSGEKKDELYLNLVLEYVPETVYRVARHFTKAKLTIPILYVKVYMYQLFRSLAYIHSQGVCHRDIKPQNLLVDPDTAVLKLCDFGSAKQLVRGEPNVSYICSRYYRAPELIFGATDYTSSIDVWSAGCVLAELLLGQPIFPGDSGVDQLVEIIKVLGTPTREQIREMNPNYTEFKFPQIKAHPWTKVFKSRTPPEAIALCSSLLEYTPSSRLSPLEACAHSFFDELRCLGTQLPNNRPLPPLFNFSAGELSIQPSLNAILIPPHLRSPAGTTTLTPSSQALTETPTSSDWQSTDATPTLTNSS
UniProt P14616: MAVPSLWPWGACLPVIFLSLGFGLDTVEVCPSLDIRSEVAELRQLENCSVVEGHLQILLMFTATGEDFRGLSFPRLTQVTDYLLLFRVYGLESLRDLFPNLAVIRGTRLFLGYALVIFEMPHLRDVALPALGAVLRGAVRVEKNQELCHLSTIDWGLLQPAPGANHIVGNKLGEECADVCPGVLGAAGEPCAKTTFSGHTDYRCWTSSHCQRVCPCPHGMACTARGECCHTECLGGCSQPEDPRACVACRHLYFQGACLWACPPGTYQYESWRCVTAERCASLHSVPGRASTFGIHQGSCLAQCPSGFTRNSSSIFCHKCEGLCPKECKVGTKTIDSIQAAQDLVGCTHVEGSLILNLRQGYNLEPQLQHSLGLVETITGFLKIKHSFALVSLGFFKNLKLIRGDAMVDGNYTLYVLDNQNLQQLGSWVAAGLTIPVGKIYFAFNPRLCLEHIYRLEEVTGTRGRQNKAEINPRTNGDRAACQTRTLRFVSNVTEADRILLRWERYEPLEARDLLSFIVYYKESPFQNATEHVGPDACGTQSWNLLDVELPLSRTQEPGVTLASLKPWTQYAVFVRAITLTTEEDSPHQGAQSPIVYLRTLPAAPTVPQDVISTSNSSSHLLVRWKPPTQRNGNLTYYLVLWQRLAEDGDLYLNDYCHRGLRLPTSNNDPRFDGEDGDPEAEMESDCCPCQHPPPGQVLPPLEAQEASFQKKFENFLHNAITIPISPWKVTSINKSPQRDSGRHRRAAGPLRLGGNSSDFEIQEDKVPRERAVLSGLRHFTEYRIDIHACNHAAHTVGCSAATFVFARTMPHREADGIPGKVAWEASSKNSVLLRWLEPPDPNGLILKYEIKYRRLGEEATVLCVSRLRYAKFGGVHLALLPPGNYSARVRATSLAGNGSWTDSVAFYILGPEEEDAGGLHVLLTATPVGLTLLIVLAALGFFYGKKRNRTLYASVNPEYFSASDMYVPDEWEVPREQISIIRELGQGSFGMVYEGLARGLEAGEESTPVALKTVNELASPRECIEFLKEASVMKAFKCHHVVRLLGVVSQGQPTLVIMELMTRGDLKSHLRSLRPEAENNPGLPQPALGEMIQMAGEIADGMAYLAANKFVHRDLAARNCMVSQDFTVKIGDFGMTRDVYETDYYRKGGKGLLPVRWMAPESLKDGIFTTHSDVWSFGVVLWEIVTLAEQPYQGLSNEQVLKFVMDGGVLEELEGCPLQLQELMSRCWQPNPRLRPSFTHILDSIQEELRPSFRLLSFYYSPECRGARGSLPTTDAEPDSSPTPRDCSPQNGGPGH
UniProt P11362, whole entry, looked up: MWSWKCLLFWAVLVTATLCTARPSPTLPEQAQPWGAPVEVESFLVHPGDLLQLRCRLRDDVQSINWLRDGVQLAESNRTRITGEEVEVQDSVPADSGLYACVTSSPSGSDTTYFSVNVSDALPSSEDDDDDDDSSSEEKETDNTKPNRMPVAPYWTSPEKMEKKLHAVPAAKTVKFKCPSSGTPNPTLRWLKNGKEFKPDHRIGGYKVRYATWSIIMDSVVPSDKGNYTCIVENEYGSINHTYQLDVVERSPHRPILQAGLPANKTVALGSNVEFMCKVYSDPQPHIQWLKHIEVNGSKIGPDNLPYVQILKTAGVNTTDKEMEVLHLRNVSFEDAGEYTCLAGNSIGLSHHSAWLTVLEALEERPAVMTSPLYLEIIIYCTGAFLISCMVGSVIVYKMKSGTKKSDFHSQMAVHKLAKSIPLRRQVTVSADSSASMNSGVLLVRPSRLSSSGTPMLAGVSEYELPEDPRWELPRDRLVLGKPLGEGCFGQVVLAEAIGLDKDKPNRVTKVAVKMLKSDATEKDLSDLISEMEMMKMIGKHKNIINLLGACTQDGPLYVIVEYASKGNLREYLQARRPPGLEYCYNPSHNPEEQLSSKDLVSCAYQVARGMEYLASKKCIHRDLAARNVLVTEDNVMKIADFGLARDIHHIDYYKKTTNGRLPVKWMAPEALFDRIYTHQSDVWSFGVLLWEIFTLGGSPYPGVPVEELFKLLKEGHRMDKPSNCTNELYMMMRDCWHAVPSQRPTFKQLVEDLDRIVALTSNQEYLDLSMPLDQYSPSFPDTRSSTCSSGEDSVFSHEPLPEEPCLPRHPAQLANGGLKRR
UniProt P21802, whole entry, looked up: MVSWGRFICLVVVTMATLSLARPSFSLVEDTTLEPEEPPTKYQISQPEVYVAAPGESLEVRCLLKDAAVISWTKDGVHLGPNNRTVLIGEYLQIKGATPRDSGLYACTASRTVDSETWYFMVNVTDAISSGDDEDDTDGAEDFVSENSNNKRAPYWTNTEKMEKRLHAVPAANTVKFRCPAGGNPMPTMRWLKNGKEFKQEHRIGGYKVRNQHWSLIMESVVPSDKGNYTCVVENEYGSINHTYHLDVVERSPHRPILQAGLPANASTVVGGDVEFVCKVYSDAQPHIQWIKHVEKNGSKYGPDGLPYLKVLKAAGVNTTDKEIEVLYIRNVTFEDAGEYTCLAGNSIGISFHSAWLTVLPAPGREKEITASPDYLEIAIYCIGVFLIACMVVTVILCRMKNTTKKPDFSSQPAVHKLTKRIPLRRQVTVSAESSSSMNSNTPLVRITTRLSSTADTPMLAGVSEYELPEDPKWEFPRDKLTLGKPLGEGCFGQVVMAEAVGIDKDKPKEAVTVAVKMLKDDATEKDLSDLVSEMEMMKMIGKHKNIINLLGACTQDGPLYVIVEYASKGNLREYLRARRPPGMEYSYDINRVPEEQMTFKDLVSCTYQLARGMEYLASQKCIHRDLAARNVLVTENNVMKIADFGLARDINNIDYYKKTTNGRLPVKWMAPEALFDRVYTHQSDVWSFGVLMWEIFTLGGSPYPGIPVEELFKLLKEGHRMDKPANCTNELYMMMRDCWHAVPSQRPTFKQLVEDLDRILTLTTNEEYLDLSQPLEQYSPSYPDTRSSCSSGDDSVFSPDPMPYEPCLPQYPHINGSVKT

What was measured:
Experiment in all cases: kinase-Nluc reporter destabilization hit call (1 = scored as downregulated) (binary); higher = compound decreases kinase abundance
Details in all cases: K562; 2-18 h
ERN1 = ERN1 (UniProt O75460)
FGFR3 = FGFR3 (UniProt P22607)
FGR = FGR (UniProt P09769)
FLT3 = FLT3 (UniProt P36888)
FYN = FYN (UniProt P06241)
GSK3A = GSK3A (UniProt P49840)
HER2 = HER2 (UniProt P04626)
INSRR = INSRR (UniProt P14616)
FGFR1 = FGFR1 (UniProt P11362)
FGFR2 = FGFR2 (UniProt P21802)

Measured: kinase-Nluc reporter destabilization hit call

CCN1C(=O)N(c2c(F)c(OC)cc(OC)c2F)Cc2cnc3[nH]c(CN4CCOCC4)cc3c21 [Pemigatinib] (10 µM)
inactive: ERN1 = 0 | FGFR3 = 0 | FGR 0 | FLT3 = 0 | FYN 0 | GSK3A 0 | HER2 = 0 | INSRR 0

Cc1c(Cn2c(C)nc3c(C(=O)O)cc(N4CCOCC4)cc32)cccc1C(F)(F)F (10 µM)
inactive: FGFR1 = 0 | FGFR2 = 0 | FGFR3 = 0 | FLT3 = 0 | FYN 0 | GSK3A 0 | HER2 = 0 | INSRR 0

Cc1c[nH]c(/C=C2\C(=O)Nc3ccccc32)c1CCC(=O)O (10 µM)
inactive: ERN1 = 0 | FGFR2 = 0 | FGFR3 = 0 | FGR 0 | FLT3 = 0 | FYN 0 | GSK3A 0 | HER2 = 0 | INSRR 0

CC(=O)N1CCN(c2ccc(OCC3COC(Cn4ccnc4)(c4ccc(Cl)cc4Cl)O3)cc2)CC1 (centres undefined) [Ketoconazole] (2.5 µM)
inactive: ERN1 = 0 | FGFR1 = 0 | FGFR2 = 0 | FGFR3 = 0 | FGR 0 | FLT3 = 0 | FYN 0 | GSK3A 0 | HER2 = 0 | INSRR 0

C=CC(=O)N1CCN(CCCn2c(=O)c(-c3c(Cl)c(OC)cc(OC)c3Cl)cc3cnc(NC)nc32)CC1 (10 µM)
active: FYN 1
inactive: ERN1 = 0 | FGFR3 = 0 | FGR 0 | FLT3 = 0 | GSK3A 0 | HER2 = 0 | INSRR 0

CCN(CC)CCCCNc1ncc2cc(-c3cc(OC)cc(OC)c3)c(NC(=O)NC(C)(C)C)nc2n1 (10 µM)
inactive: ERN1 = 0 | FGFR2 = 0 | FGFR3 = 0 | FGR 0 | FLT3 = 0 | FYN 0 | GSK3A 0 | HER2 = 0 | INSRR 0

COc1cc(OC)cc(N(CCNC(C)C)c2ccc3ncc(-c4cnn(C)c4)nc3c2)c1 [Erdafitinib] (2.5 µM)
inactive: ERN1 = 0 | FGR 0 | FYN 0 | GSK3A 0 | HER2 = 0 | INSRR 0

O=C(Nc1ccc(-c2ccnc(Nc3ccc(N4CCOCC4)cc3)n2)cc1)C1CCCN1 (centres undefined) (10 µM)
inactive: ERN1 = 0 | FGFR1 = 0 | FGFR2 = 0 | FGFR3 = 0 | FGR 0 | FLT3 = 0 | FYN 0 | GSK3A 0 | HER2 = 0 | INSRR 0

COc1cc(OC)c(F)c(COc2cnc(Nc3cnn(CCO)c3)nc2)c1F (2.5 µM)
inactive: ERN1 = 0 | FGFR1 = 0 | FGFR2 = 0 | FGR 0 | FLT3 = 0 | FYN 0 | GSK3A 0 | HER2 = 0 | INSRR 0

C=CC(=O)N1CC[C@H](n2nc(C#Cc3cc(OC)cc(OC)c3)c3c(N)ncnc32)C1 [Futibatinib] (10 µM)
inactive: ERN1 = 0 | FGFR1 = 0 | FGFR3 = 0 | FGR 0 | FLT3 = 0 | FYN 0 | GSK3A 0 | HER2 = 0 | INSRR 0

Cn1c(=O)n(-c2ccc(C(C)(C)C#N)cc2)c2c3cc(-c4cnc5ccccc5c4)ccc3ncc21 [Dactolisib (Tosylate)] (10 µM)
inactive: ERN1 = 0 | FGFR1 = 0 | FGFR2 = 0 | FGFR3 = 0 | FGR 0 | FLT3 = 0 | FYN 0 | GSK3A 0 | HER2 = 0 | INSRR 0

O=C(/C=C/c1ccc(O)c(O)c1)c1ccc(O)cc1O [Butein] (10 µM)
inactive: ERN1 = 0 | FGFR2 = 0 | FGFR3 = 0 | FGR 0 | FLT3 = 0 | FYN 0 | GSK3A 0 | HER2 = 0 | INSRR 0

C[C@H](CN(C)C)Oc1nc(Nc2cc3cccc(Cl)c3cn2)cnc1C#N (10 µM)
inactive: ERN1 = 0 | FGFR1 = 0 | FGFR2 = 0 | FGFR3 = 0 | FGR 0 | FLT3 = 0 | FYN 0 | GSK3A 0 | HER2 = 0 | INSRR 0

COc1cc(N2CCC(N)CC2)ccc1Nc1ncc(Cl)c(-c2c[nH]c3ccccc23)n1 (2.5 µM)
inactive: ERN1 = 0 | FGFR1 = 0 | FGFR3 = 0 | FGR 0 | FLT3 = 0 | FYN 0 | GSK3A 0 | HER2 = 0 | INSRR 0

CC(=O)NCC(=O)N1[C@@H]2CC[C@H]1c1ccc(Nc3ncc(C(F)(F)F)c(NC4CCC4)n3)cc12 (2.5 µM)
inactive: ERN1 = 0 | FGFR1 = 0 | FGFR2 = 0 | FGFR3 = 0 | FGR 0 | FLT3 = 0 | FYN 0 | GSK3A 0 | HER2 = 0 | INSRR 0

Cc1c[nH]c2nccc(Oc3c(F)cc(Nc4cc(Cl)nc(N)n4)cc3F)c12 (10 µM)
inactive: ERN1 = 0 | FGFR1 = 0 | FGFR2 = 0 | FGFR3 = 0 | FGR 0 | FLT3 = 0 | FYN 0 | GSK3A 0 | HER2 = 0 | INSRR 0

CCCCNc1ncc(-c2ccc(CN3CCOCC3)cn2)c(NC2CCC(O)CC2)n1 (centres undefined) (10 µM)
inactive: ERN1 = 0 | FGFR1 = 0 | FGFR2 = 0 | FGFR3 = 0 | FGR 0 | FYN 0 | GSK3A 0 | HER2 = 0 | INSRR 0

Cn1c(=O)c(Oc2ccc(F)cc2F)cc2cnc(NC3CCOCC3)nc21 [R1487 (Hydrochloride)] (10 µM)
inactive: ERN1 = 0 | FGFR1 = 0 | FGFR2 = 0 | FGFR3 = 0 | FGR 0 | FLT3 = 0 | FYN 0 | GSK3A 0 | HER2 = 0 | INSRR 0

C=CC(=O)N[C@H]1COC[C@H]1Nc1ncc2cc(-c3c(Cl)c(OC)cc(OC)c3Cl)c(=O)n(C)c2n1 (10 µM)
inactive: ERN1 = 0 | FGFR1 = 0 | FGFR3 = 0 | FGR 0 | FLT3 = 0 | FYN 0 | GSK3A 0 | HER2 = 0 | INSRR 0

N#C/C(=C\c1ccc(O)c(O)c1)C(=O)NCCCc1ccccc1 (10 µM)
inactive: ERN1 = 0 | FGFR1 = 0 | FGFR2 = 0 | FGFR3 = 0 | FGR 0 | FLT3 = 0 | FYN 0 | GSK3A 0 | HER2 = 0 | INSRR 0

COc1cc2ncnc(Nc3cccc(O)c3)c2cc1OC (10 µM)
inactive: ERN1 = 0 | FGFR1 = 0 | FGFR2 = 0 | FGFR3 = 0 | FGR 0 | FLT3 = 0 | FYN 0 | GSK3A 0 | HER2 = 0 | INSRR 0

CC(C)(C)c1cc(NC(=O)Nc2ccc(-c3cn4c(n3)sc3cc(OCCN5CCOCC5)ccc34)cc2)no1 [Quizartinib] (10 µM)
inactive: ERN1 = 0 | FGFR1 = 0 | FGFR2 = 0 | FGFR3 = 0 | FGR 0 | FYN 0 | GSK3A 0 | HER2 = 0 | INSRR 0

COc1cc(CCc2cc(-c3nc4ccc(N5CCN(C)CC5)cc4[nH]3)n[nH]2)cc(OC)c1 (10 µM)
inactive: ERN1 = 0 | FGFR2 = 0 | FGR 0 | FYN 0 | GSK3A 0 | HER2 = 0 | INSRR 0

Brc1c(Br)c(Br)c2n[nH]nc2c1Br (10 µM)
inactive: ERN1 = 0 | FGFR1 = 0 | FGFR2 = 0 | FGFR3 = 0 | FGR 0 | FLT3 = 0 | FYN 0 | GSK3A 0 | HER2 = 0 | INSRR 0

CC(C)=CC/C=C(\C)[C@H]1CC[C@]2(C)[C@@H]1[C@H](O)C[C@@H]1[C@@]3(C)CC[C@H](O[C@@H]4O[C@H](CO)[C@@H](O)[C@H](O)[C@H]4O[C@@H]4O[C@H](CO)[C@@H](O)[C@H](O)[C@H]4O)C(C)(C)[C@@H]3CC[C@]12C [Ginsenoside Rg5] (10 µM)
inactive: FGFR1 = 0 | FGFR2 = 0 | FGFR3 = 0 | FGR 0 | FLT3 = 0 | FYN 0 | GSK3A 0 | HER2 = 0 | INSRR 0

C=CC(=O)Nc1cccc(Nc2nc(Nc3ccc(OCCOC)cc3)ncc2F)c1 [Spebrutinib] (10 µM)
inactive: FGFR1 = 0 | FGFR2 = 0 | FGFR3 = 0 | FGR 0 | FLT3 = 0 | FYN 0 | GSK3A 0 | HER2 = 0 | INSRR 0

Of the compounds above, 2 have a CF3 group.
Cc1c(Cn2c(C)nc3c(C(=O)O)cc(N4CCOCC4)cc32)cccc1C(F)(F)F (10 µM)
inactive: FGFR1 = 0 | FGFR2 = 0 | FGFR3 = 0 | FLT3 = 0 | FYN 0 | GSK3A 0 | HER2 = 0 | INSRR 0

CC(=O)NCC(=O)N1[C@@H]2CC[C@H]1c1ccc(Nc3ncc(C(F)(F)F)c(NC4CCC4)n3)cc12 (2.5 µM)
inactive: ERN1 = 0 | FGFR1 = 0 | FGFR2 = 0 | FGFR3 = 0 | FGR 0 | FLT3 = 0 | FYN 0 | GSK3A 0 | HER2 = 0 | INSRR 0

(next part)

CC(C)(C)S(=O)(=O)c1cc2c(Nc3ccc4scnc4c3)ncnc2cc1OCCO (2.5 µM)
inactive: FGFR1 = 0 | FGFR2 = 0 | FGFR3 = 0 | FGR 0 | FLT3 = 0 | FYN 0 | GSK3A 0 | HER2 = 0 | INSRR 0

COCCNCCc1cccc(Nc2ncc3c(n2)-c2ccccc2[C@H](c2ccccc2F)C3)c1 [Derazantinib] (2.5 µM)
inactive: ERN1 = 0 | FGFR2 = 0 | FGFR3 = 0 | FGR 0 | FLT3 = 0 | FYN 0 | GSK3A 0 | HER2 = 0 | INSRR 0
